Data as given in PubChem BioAssay AID1671195 (Yale University, 2021).

- Purpose: 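Genes whose knockdown alters LDL uptake in liver cancer cells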 (primary screen)
- Cell system: human Huh7 hepatoma cells
- Knock-down reagent: siRNA pool against human genes, 18 nM
- Duration: about 2 to 2.5 days of knockdown, then 8 h LDL uptake
- Conditions: DiI-labelled LDL at 30 µg/ml for 8 h, in lipoprotein-deficient serum medium
- Read-out: 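Fluorescent LDL signal imaged in cells, scaled to the plate median, robust z-score for each replicate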
- Direction: robust z-score: higher = more LDL uptake after knockdown
- Hit rule: 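Active when two or more replicates show a robust z-score above 2 or below -2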
Here is one part, drawn at random, of about 22,000 reagents. Over the whole deposit, about 1,510 (6.9%) were called active. 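Active includes knockdowns raising or lowering LDL uptake; positive z-scores mean more uptake, negative mean less.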 Entries without a mark were called inactive.

Silencing of TMEM254 (transmembrane protein 254) came out at: robust z-score, replicate 1 = 1.09; robust z-score, replicate 2 = 0.848; robust z-score, replicate 3 = 1.02.
POLR3F (RNA polymerase III subunit F) gave robust z-score, replicate 1 = 0.439; robust z-score, replicate 2 = 0.376; robust z-score, replicate 3 = 0.617.
Against ABHD18 (abhydrolase domain containing 18) the deposit lists robust z-score, replicate 1 = -0.557; robust z-score, replicate 2 = -0.707; robust z-score, replicate 3 = -0.833.
For KIF1B (kinesin family member 1B), the values are robust z-score, replicate 1 = -1.93 (active); robust z-score, replicate 2 = -1.57; robust z-score, replicate 3 = -2.03.
OR3A4P (olfactory receptor family 3 subfamily A member 4 pseudogene) gave robust z-score, replicate 1 = 1.57; robust z-score, replicate 2 = 0.666; robust z-score, replicate 3 = 1.07.
AGER (advanced glycosylation end-product specific receptor) showed robust z-score, replicate 1 = -2.29 (active); robust z-score, replicate 2 = -2.35; robust z-score, replicate 3 = -2.29.
After knock-down of LOC441842 (retired record), the screen gave robust z-score, replicate 1 = 3.85 (active); robust z-score, replicate 2 = 2.51; robust z-score, replicate 3 = 3.24.
Knock-down of EMD (emerin) gave: robust z-score, replicate 1 = -0.338; robust z-score, replicate 2 = 0.22; robust z-score, replicate 3 = 0.182.
Against KLC1 (kinesin light chain 1) the deposit lists robust z-score, replicate 1 = 1.3; robust z-score, replicate 2 = 1.34; robust z-score, replicate 3 = -0.151.
Knock-down of MIEN1 (migration and invasion enhancer 1) gave: robust z-score, replicate 1 = -0.588; robust z-score, replicate 2 = -0.522; robust z-score, replicate 3 = -0.754.
With knock-down of MYO3B (myosin IIIB), the record shows robust z-score, replicate 1 = -0.844; robust z-score, replicate 2 = -1.1; robust z-score, replicate 3 = -0.834.
With knock-down of SDS (serine dehydratase), the screen gave robust z-score, replicate 1 = 2.5 (active); robust z-score, replicate 2 = 2.48; robust z-score, replicate 3 = 2.59.
ZNF354B (zinc finger protein 354B) showed robust z-score, replicate 1 = -0.325; robust z-score, replicate 2 = -0.478; robust z-score, replicate 3 = 0.629.
ZNF662 (zinc finger protein 662) gave robust z-score, replicate 1 = 2.47; robust z-score, replicate 2 = 0.571; robust z-score, replicate 3 = 0.03.

Hits, among the entries above:
KIF1B (kinesin family member 1B) | robust z-score, replicate 1 = -1.93 (active); robust z-score, replicate 2 = -1.57; robust z-score, replicate 3 = -2.03
AGER (advanced glycosylation end-product specific receptor) | robust z-score, replicate 1 = -2.29 (active); robust z-score, replicate 2 = -2.35; robust z-score, replicate 3 = -2.29
LOC441842 (retired record) | robust z-score, replicate 1 = 3.85 (active); robust z-score, replicate 2 = 2.51; robust z-score, replicate 3 = 3.24
SDS (serine dehydratase) | robust z-score, replicate 1 = 2.5 (active); robust z-score, replicate 2 = 2.48; robust z-score, replicate 3 = 2.59

The list goes on.
Against CHST11 (carbohydrate sulfotransferase 11), the values are robust z-score, replicate 1 = 0.221; robust z-score, replicate 2 = -0.451; robust z-score, replicate 3 = -0.258.
After knock-down of ABCE1 (ATP binding cassette subfamily E member 1), the screen gave robust z-score, replicate 1 = -0.791; robust z-score, replicate 2 = -0.992; robust z-score, replicate 3 = -0.828.
Knock-down of ATXN3L (ataxin 3 like) resulted in: robust z-score, replicate 1 = 0.0902; robust z-score, replicate 2 = -0.718; robust z-score, replicate 3 = -0.484.
Silencing of TOR4A (torsin family 4 member A) resulted in: robust z-score, replicate 1 = 0.0373; robust z-score, replicate 2 = 0.0941; robust z-score, replicate 3 = -1.31.
After knock-down of PCOLCE2 (procollagen C-endopeptidase enhancer 2), the record shows robust z-score, replicate 1 = 1.32; robust z-score, replicate 2 = 0.5; robust z-score, replicate 3 = 1.15.
SOCS7 (suppressor of cytokine signaling 7) gave robust z-score, replicate 1 = 0.874; robust z-score, replicate 2 = 1.58; robust z-score, replicate 3 = -0.843.
Depletion of LOC440848 (retired record) resulted in: robust z-score, replicate 1 = -0.143; robust z-score, replicate 2 = -0.278; robust z-score, replicate 3 = -0.301.
Against LEAP2 (liver enriched antimicrobial peptide 2), the values are robust z-score, replicate 1 = -0.955; robust z-score, replicate 2 = 0.657; robust z-score, replicate 3 = 0.627.
Knock-down of OR2L2 (olfactory receptor family 2 subfamily L member 2) came out at: robust z-score, replicate 1 = 1.48; robust z-score, replicate 2 = 1.66; robust z-score, replicate 3 = -0.403.
With knock-down of SARM1 (sterile alpha and TIR motif containing 1) the results were robust z-score, replicate 1 = -0.919; robust z-score, replicate 2 = 0.151; robust z-score, replicate 3 = -0.376.
After knock-down of FREM3 (FRAS1 related extracellular matrix 3), the record shows robust z-score, replicate 1 = -0.458; robust z-score, replicate 2 = -0.508; robust z-score, replicate 3 = -0.735.
SAMD14 (sterile alpha motif domain containing 14) gave robust z-score, replicate 1 = -0.108; robust z-score, replicate 2 = -0.223; robust z-score, replicate 3 = 1.21.
After knock-down of GBGT1, the screen gave robust z-score, replicate 1 = -1.52; robust z-score, replicate 2 = 0.219; robust z-score, replicate 3 = -1.58.
EPRS1 (glutamyl-prolyl-tRNA synthetase 1) scored robust z-score, replicate 1 = 0.562; robust z-score, replicate 2 = 0.449; robust z-score, replicate 3 = 0.688.
Silencing of OR1S1 (olfactory receptor family 1 subfamily S member 1) resulted in: robust z-score, replicate 1 = 0.781; robust z-score, replicate 2 = 0.49; robust z-score, replicate 3 = 0.857.
With knock-down of DAZAP2P1 (DAZ associated protein 2 pseudogene 1), the record shows robust z-score, replicate 1 = 0.0761; robust z-score, replicate 2 = 0.281; robust z-score, replicate 3 = -0.0165.
